Source: paper PMC7532413
Results are given in words; binding and its absence hold for the method and conditions named. In cells and extracts the contact can be indirect. Some results given as binding are weak or reduced against the parent protein; the word gives no strength.

By UniProt entry, the sequences of proteins in these tests, tags left out.
UniProt P09429: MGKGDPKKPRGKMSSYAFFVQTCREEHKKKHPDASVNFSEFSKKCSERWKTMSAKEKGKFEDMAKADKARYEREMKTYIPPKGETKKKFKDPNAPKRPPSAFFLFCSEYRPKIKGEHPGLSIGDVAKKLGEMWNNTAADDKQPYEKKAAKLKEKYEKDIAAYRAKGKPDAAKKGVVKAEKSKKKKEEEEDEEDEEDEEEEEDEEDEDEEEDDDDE
UniProt Q9GZX7: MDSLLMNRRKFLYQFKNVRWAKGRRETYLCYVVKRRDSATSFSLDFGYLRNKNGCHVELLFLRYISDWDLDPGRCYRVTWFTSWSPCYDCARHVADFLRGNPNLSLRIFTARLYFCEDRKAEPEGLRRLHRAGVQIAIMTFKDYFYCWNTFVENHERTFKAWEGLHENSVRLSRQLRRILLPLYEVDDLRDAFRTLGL
UniProt Q13569: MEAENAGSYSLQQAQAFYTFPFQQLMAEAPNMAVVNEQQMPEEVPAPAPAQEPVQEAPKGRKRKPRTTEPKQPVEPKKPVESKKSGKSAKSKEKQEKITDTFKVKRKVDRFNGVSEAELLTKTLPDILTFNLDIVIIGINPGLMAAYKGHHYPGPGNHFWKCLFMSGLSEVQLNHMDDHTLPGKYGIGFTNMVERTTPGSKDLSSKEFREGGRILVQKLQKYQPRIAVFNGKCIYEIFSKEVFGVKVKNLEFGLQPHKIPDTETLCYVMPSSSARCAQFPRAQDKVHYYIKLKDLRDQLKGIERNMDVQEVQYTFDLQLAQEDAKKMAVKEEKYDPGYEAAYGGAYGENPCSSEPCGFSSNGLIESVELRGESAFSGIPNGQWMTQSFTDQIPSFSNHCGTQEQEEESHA

Target: HMGB1 (UniProt P09429)
Test: co-IP; Jurkat cell proteins extracted with RIPA lysis buffer; anti-HMGB1 antibody overnight at 4°C, protein A/G agarose beads 2 hours at room temperature; western blot with anti-TET2, anti-AID and anti-TDG

Row | Substance | binding
1 | Activation-induced cytidine deaminase (from UniProt Q9GZX7 1-198) (enzyme) | binds
2 | thymine-DNA glycosylase (from UniProt Q13569 1-410) (enzyme) | binds
